Experimental findings from US20220112288A1 are described below.

No constants are given. Whether binding was seen depends on the method and setting.

This test addresses Human CD8αα fused to human Fc (human). The test can be described thus: SPR (Biacore 8K), mAb captured, single cycle kinetics.

B1: CD8B310 (antibody, human IgG1, kappa, V domains shown)
VH: QVQLKESGPGLVAPSQSLSITCTVSGFSLTNYAVHWVRQSPGKGLEWLGVIWTDGSTDYNAGFISRLSISKDNSKSQVFFKMNSLQADDTAIYYCARNNGYFPAFFAYWGQGTTVTVSS
VL: DVLMTQTPLSLPVSLGDQASISCRSSQTIVHSNGNTYLEWYLQKPGQSPKLLMYKVSNRFSGVPDRFGGSGSGTDFTLKISRVEAEDLGVYYCFQGSHAPFTFGSGTKLEIKR
Consider B1, for which the binding entry is given as “no binding (tested: 100 nM (highest concentration tested))”.

B2: CD8B319 (antibody, human IgG1, kappa, V domains shown)
VH: QVQLKESGPELKKPGETVKISCKASGYSFTAYYMHWVKQSPEKSLEWIGEINPSAGGTTYNQKFKAKATLTVDKSSSTAFIQLKSLTSEDSAVYYCARWTNPFDYWGQGTTLTVSS
VL: DIVMTQSQKFMSTTVGDRVSITCKASQNVGTAVAWYQQKPGQSPKLLIYSASYRYTGVPDRFTGSGSGTHFTLTISNIQSEDLADYFCQQYNNYLTFGSGTKLEIKR
Turning to B2, the binding entry is given as “no binding (tested: 100 nM (highest concentration tested))”.
